The values below come from PMC6451094.

Chains of the proteins cited; added tags and fusions are not shown.
UniProt P32333: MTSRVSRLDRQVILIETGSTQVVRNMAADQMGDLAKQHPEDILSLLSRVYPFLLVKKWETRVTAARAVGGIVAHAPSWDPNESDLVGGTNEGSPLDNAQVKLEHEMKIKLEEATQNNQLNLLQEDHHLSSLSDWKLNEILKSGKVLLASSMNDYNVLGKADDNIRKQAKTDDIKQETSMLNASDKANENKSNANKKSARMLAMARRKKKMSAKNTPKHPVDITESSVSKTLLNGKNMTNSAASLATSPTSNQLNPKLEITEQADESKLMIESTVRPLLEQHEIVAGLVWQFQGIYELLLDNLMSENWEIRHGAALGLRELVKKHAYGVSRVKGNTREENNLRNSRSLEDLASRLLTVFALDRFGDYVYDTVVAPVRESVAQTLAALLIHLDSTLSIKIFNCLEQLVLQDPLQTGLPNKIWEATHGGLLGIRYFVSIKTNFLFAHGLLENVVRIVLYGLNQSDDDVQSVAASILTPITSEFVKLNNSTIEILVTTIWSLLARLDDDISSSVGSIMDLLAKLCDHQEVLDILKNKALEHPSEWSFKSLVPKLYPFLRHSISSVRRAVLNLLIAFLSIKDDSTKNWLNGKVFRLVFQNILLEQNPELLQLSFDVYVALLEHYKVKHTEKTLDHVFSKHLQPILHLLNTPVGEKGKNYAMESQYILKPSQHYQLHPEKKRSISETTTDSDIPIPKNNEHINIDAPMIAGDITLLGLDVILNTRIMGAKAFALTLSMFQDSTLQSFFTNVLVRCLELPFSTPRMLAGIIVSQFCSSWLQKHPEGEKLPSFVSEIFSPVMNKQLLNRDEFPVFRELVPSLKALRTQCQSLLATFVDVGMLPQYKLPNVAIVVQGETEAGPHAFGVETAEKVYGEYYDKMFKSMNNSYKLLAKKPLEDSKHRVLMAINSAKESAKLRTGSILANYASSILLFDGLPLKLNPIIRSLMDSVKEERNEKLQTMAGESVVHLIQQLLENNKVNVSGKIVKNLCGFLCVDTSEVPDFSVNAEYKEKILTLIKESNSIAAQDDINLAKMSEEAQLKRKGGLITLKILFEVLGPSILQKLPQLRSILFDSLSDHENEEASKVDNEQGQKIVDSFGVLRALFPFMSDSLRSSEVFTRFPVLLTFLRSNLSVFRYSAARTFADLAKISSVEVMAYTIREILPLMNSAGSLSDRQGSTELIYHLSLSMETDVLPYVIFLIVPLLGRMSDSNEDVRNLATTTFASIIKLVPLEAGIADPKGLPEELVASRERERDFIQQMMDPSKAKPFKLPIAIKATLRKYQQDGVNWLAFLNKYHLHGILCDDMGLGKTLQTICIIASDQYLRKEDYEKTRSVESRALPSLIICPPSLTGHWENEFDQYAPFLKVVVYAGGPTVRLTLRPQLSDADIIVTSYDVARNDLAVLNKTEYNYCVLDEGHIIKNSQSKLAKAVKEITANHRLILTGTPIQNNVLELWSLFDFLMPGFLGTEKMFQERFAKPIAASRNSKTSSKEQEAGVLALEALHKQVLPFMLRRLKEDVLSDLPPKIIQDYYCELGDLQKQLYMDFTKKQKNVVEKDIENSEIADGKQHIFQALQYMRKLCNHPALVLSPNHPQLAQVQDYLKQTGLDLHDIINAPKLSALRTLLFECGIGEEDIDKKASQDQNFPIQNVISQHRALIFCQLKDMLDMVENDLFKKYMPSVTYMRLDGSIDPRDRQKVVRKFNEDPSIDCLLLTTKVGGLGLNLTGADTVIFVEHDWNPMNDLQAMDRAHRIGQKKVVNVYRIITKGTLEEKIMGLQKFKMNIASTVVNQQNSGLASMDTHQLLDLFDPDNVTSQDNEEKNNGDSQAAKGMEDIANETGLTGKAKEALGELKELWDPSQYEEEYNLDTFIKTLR

Results are given in words; binding and its absence hold for the method and conditions named. Some binding calls cover weakened binding; strength is not graded here. Sequences can lack the tags named with a protein.

Experiment [1] concerns the target T1, TATA-box Binding Protein TBP^S61C,C78A,C164A from Saccharomyces cerevisiae, fluorescently labeled at residue 61 (Saccharomyces cerevisiae) (UniProt P13393).
T1 sequence (chain, Atto532 or Atto647N (maleimide-coupled) on the cysteine at residue 61): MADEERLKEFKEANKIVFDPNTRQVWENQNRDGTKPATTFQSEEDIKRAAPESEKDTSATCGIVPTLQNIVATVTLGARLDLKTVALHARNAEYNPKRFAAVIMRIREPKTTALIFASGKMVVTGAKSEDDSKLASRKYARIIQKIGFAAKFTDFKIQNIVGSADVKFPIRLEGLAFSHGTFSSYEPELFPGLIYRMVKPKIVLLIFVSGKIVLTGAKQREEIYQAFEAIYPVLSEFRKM
Nature of the experiment: FRET or BRET; single-pair FRET in solution, confocal multi-parameter fluorescence detection with pulsed interleaved excitation (MFD-PIE); complexes prepared as for TIRF, diluted to <50 pM, measured 2 h; Mot1 binding read from the FRET increase between TBP and DNA; both purified.

Experiment [2] deals with T1, TATA-box Binding Protein TBP^S61C,C78A,C164A from Saccharomyces cerevisiae, fluorescently labeled at residue 61 (Saccharomyces cerevisiae). Nature of the experiment: FRET or BRET; single-pair FRET by prism-type TIRF between TBP-Atto532 and H2B promoter DNA 1-Atto647N; 10 nM DNA and 15 nM TBP pre-incubated 15 min RT, then 12.5 nM Mot1 for at least 15 min RT, diluted to ~100 pM; DNA immobilised by biotin-streptavidin-biotin; 10 mM Tris, 60 mM KCl, 5 mM MgCl2, 10% glycerol, 0.25 mg/ml BSA, 2.5 mM DTT, pH 8.2; Mot1 binding not monitored directly but read from the shift to FRET efficiency 0.78; also seen with AdML promoter DNA 6; both purified. A general note: In BRET a luciferase serves as donor, and the signal depends on an acceptor being close.

Experiment [3] shares this target. Nature of the experiment: three-color single-molecule TIRF (presence of Mot1-Alexa488 on immobilised DNA/TBP complexes); as a3, after addition of ATP to the ternary DNA/TBP/Mot1 complexes; both purified.
The target is the same in experiment [4]. The experiment is described as follows: three-color single-molecule TIRF (presence of Mot1-Alexa488 on immobilised DNA/TBP complexes); alternating 488 and 532 nm excitation; complexes containing Mot1 identified by fluorescence in the green channel after 488 nm excitation; DNA/TBP FRET recorded at the same time; no nucleotide; both purified.

With “Modifier of transcription 1 (Mot1) (from UniProt P32333 1-1867) (enzyme)”, the binding entry in experiment [1] and in experiment [2] was “binds” each time.
Take “Modifier of transcription 1 (Mot1) labeled with Alexa488 (from UniProt P32333 1-1867) (enzyme)”: the binding entry in experiment [3] and in experiment [4] was “binds” in each case.
